# Library screen at single concentrations

Source: ChEMBL document CHEMBL3988442, “University of Dundee, Small-Polar-MMV Screening Library” (2021).

T. brucei: 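Whole-parasite assay of Trypanosoma brucei over 72 hours; the read-out is not stated. Compounds at 30 µM. Direction is inferred from retests: higher values go with stronger inhibition. Values scatter widely below zero; nearly all retest evidence comes from the higher of the two concentrations used. About 64,000 compounds were tested under these conditions; 1.5% (about 940) showed 50% or more at least once.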
Toxoplasma: 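Assay of Toxoplasma gondii numbers, read through their beta-galactosidase reporter with a colour substrate. Concentration: 10 µM. Higher reads as fewer parasites (inferred from which compounds were picked for retests). Of about 67,000 compounds tested this way, about 260 (0.38%) reached 50% or more in at least one test.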

Values are the deposited “Percent Effect”, in %. The controls that fix the scale are not given in the record; negative values are as filed. This is an unselected part of the compounds tested.

Cc1cc(CN(Cc2cccs2)CC2CCCO2)on1 (stereo not shown) gave T. brucei: -2.388%; Toxoplasma: -8.66%.
CNC(=O)CCc1cc(C2CCCCN2C)nc(C)n1 (stereo not shown) gave T. brucei: -12.83%; Toxoplasma: -3.962%.
c1cnc(-c2nc(CN3CCCC3Cn3cncn3)cs2)nc1 (stereo not shown) gave Toxoplasma: 0.4922%.
CCc1cnc(N2CCOC(CCOC)C2)nc1 (stereo not shown) gave T. brucei: -22.98%; Toxoplasma: -1.142%.
O=C(Cn1cnc(NC(=O)CC2CCCC2)n1)NCc1ccccc1 gave T. brucei: -7.975%; Toxoplasma: -8.045%.
Cc1csc(C2CCCCN2C(=O)CCCn2cccn2)n1 (stereo not shown) gave T. brucei: -38.23%; Toxoplasma: -0.8653%.
O=C1CCC2(CCCN(Cc3nnc(C4CC4)o3)C2)CN1CCO (stereo not shown) gave T. brucei: 17.44%; Toxoplasma: 5.118%.
Cc1cc(Cl)ccc1NCC(=O)Nc1cc(C(C)(C)C)no1 gave T. brucei: -1.83%; Toxoplasma: -4.588%.
COCCn1ccnc1C1CCCN(c2cc(OC)nc(N)n2)C1 (stereo not shown) gave T. brucei: -68.81%; Toxoplasma: 14.98%.
CC(C)(C)c1nnc(NCC(=O)N2CCc3sccc3C2)s1 gave T. brucei: -20.33%; Toxoplasma: 6.377%.
COCCN1CCCN(C(=O)NC(C)Cn2ccnc2)CC1 (stereo not shown) gave T. brucei: 10.65%; Toxoplasma: -3.893%.
CCOCC1CN(Cc2ccco2)Cc2ccnn2C1 (stereo not shown) gave T. brucei: -78.84%; Toxoplasma: -1.143%.
Cc1ccc(Br)cc1S(=O)(=O)NCCc1nnc[nH]1 gave T. brucei: -16.35%; Toxoplasma: -0.1163%.
Cc1ccc(CN2Cc3c(C(=O)N4CCN(C)CC4)nn(C)c3C2)s1.O=C(O)C(F)(F)F.O=C(O)C(F)(F)F.O=C(O)C(F)(F)F gave T. brucei: -10.31%; Toxoplasma: 4.512%.
CCc1nsc(N2CCN(CC(=O)Nc3c(C)n[nH]c3C)CC2)n1 gave T. brucei: -71.42%; Toxoplasma: 1.731%.
CCn1cnnc1CCNC(=O)c1ccc(F)c(Br)c1 gave T. brucei: -6.642%; Toxoplasma: 5.398%.
CS(=O)(=O)N1CCN(C(=O)c2cc(-c3cccs3)cs2)CC1 gave T. brucei: 9.266%; Toxoplasma: -20.23%.
CCc1nc(C2CCCN2CCc2cccs2)no1 (stereo not shown) gave T. brucei: -4.245%; Toxoplasma: -1.928%.
COC(=O)c1cc2n(n1)CCCN(C(=O)Cc1c[nH]c3ccccc13)C2 gave Toxoplasma: 5.14%.
CCC(=O)N1CCC(c2ncc(C(=O)Nc3ccccc3)c(C)n2)C1 (stereo not shown) gave T. brucei: -17.88%; Toxoplasma: 12.21%.
O=C(c1cc2c([nH]c1=O)CCC2)N1CCCCC1c1cccc(F)c1 (stereo not shown) gave T. brucei: -26.38%; Toxoplasma: -4.561%.
CN(Cc1ccc([S+](C)[O-])cc1)c1ccc(C(F)(F)F)cn1 (stereo not shown) gave T. brucei: 48.16%; Toxoplasma: 9.592%.
Cc1ccnc(N2CCCC(c3nncn3C3CC3)C2)n1 (stereo not shown) gave T. brucei: 6.864%; Toxoplasma: -1.474%.
O=C(NCc1ccoc1)Nc1ccc(CN2CCOC2=O)cc1 gave T. brucei: -34.97%; Toxoplasma: 14.25%.
CNC(=O)CN1CCCC12CCN(C(=O)c1ccsc1)CC2.O=C(O)C(F)(F)F gave T. brucei: 8.597%; Toxoplasma: 14.04%.
[H][C@]12CC[C@]([H])(CN(C(=O)Cc3c(F)cccc3Cl)C1)N(CCOC)C2=O gave T. brucei: -28.07%; Toxoplasma: 2.271%.
O=C(CCCOc1ccccc1F)NCCCC(=O)Nc1cn[nH]c1 gave T. brucei: 1.362%; Toxoplasma: -0.6977%.
O=C(CN1CCCCCCC1=O)NCc1ccccn1 gave T. brucei: -33.68%; Toxoplasma: -5.57%.
CC(=O)Nc1cc(CCC2CCN(C(=O)c3ccccn3)CC2)ccn1 gave T. brucei: -19.84%; Toxoplasma: -2.511%.
Cc1ccc(CN2CCc3[nH]nc(C(=O)N4CCN(C)CC4)c3C2)o1.O=C(O)C(F)(F)F.O=C(O)C(F)(F)F.O=C(O)C(F)(F)F gave T. brucei: -13.72%; Toxoplasma: -1.647%.
O=C(O)C(F)(F)F.O=S1(=O)NCC2(CCN(c3ncccn3)CC2)COc2ccccc21 gave T. brucei: -77.63%; Toxoplasma: -2.319%.

For reference, 2 entries once more:

| compound | T. brucei | Toxoplasma |
|---|---|---|
| `CCc1cnc(N2CCOC(CCOC)C2)nc1` (stereo not shown) | -22.98% | -1.142% |
| `CCn1cnnc1CCNC(=O)c1ccc(F)c(Br)c1` | -6.642% | 5.398% |